Results published in the supplement of paper PMC12823440, “Inhibitors supercharge kinase turnover through native proteolytic circuits” (Nature, 2025).
The other results are listed elsewhere or left out. Hit calls seldom repeat between salt and free forms of one compound.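 Kinases, fused to nanoluciferase, were expressed in K562 cells; luminescence was measured every 4 h from 2 to 18 h as percent of control (DMSO = 100%, positive control = 0%). A time point is decreased if signal falls significantly (2 sigma). Hits were called by the authors by a rule that is not shown; the count of time points alone does not decide it.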

Amino acid sequences for entries named in this document (tags omitted). A change or cut given only in a name is not applied to a line headed by its entry.
UniProt P07947, whole entry, looked up: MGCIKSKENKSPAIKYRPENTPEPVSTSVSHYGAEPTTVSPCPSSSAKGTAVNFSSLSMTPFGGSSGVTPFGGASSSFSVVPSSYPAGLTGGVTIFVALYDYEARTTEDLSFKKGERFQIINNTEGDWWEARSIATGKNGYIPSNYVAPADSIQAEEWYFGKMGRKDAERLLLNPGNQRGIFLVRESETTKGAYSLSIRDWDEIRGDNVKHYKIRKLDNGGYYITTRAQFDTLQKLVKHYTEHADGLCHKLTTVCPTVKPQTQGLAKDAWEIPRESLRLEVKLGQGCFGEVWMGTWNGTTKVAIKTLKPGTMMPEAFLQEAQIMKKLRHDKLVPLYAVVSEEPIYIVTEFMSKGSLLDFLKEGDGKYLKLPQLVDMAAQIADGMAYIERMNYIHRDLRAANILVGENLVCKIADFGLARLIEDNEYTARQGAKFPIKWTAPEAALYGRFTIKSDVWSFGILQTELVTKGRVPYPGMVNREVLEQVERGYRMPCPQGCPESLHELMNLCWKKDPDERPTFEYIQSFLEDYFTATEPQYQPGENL
UniProt P43403: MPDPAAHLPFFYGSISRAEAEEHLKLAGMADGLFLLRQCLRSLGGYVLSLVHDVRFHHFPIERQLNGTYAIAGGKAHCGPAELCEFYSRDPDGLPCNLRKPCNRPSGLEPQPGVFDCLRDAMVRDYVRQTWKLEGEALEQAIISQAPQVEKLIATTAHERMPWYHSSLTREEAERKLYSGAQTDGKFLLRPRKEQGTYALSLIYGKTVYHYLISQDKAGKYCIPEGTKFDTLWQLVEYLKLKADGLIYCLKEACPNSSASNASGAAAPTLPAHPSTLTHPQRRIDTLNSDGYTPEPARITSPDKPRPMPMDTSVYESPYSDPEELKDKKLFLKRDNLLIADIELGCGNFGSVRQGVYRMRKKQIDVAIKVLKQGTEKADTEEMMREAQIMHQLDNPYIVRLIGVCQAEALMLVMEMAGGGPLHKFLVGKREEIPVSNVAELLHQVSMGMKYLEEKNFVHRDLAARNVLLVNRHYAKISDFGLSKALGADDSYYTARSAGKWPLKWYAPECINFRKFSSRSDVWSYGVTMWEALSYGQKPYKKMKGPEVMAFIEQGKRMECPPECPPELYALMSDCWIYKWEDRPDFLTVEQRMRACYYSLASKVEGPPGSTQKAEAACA
UniProt P11802: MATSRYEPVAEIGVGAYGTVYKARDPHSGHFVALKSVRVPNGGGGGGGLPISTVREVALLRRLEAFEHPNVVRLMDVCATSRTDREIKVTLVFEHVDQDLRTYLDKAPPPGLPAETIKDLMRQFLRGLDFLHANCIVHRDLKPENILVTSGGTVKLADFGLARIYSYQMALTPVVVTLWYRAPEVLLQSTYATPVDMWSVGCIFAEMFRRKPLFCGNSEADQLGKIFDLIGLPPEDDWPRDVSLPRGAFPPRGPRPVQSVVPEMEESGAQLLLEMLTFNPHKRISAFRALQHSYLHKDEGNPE
UniProt P50613: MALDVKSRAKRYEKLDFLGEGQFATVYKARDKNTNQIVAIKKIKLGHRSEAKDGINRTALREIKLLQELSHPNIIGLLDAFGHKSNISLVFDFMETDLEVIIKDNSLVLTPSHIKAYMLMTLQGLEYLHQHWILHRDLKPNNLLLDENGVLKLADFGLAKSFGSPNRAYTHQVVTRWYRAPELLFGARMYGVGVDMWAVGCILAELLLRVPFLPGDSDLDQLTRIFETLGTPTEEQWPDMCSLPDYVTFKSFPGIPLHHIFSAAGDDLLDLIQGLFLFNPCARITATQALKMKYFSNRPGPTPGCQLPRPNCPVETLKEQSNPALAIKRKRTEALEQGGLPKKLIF
UniProt P50750, whole entry: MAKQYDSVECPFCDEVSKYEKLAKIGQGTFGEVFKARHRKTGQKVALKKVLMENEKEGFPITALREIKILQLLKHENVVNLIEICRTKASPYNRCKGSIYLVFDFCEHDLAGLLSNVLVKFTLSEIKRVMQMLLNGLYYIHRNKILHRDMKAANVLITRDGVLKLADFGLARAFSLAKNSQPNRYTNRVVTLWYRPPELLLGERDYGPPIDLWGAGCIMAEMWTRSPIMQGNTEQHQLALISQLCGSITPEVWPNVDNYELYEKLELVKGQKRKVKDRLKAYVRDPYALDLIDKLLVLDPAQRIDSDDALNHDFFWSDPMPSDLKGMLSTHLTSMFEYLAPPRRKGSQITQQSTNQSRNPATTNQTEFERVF

Key:
Conditions in all cases: K562; 2-18 h
[1] = target: YES1 (UniProt P07947); assay: number of time points (of 5) at which kinase-Nluc abundance scored as decreased, DMSO-normalised (count); higher = more persistent destabilization
[2] = target: ZAK (UniProt Q9NYL2); assay: as above
[3] = target: ZAP70 (UniProt P43403); assay: as above
[4] = target: CDK4 (UniProt P11802); assay: number of time points (of 4; 2 h point missing) at which kinase-Nluc abundance scored as decreased, DMSO-normalised (count); higher = more persistent destabilization
[5] = target: CDK7 (UniProt P50613); assay: as above
[6] = target: CDK9 (UniProt P50750); assay: as above

Measured: number of time points

CN(C)S(=O)(=O)c1ccc2c(c1)/C(=C/c1cc3c([nH]1)CCCC3)C(=O)N2 (2.5 µM)
0: all assays above

Cn1cnc([N+](=O)[O-])c1C[N+](C)(C)C/C=C/C(=O)Nc1cc2c(Nc3ccc(Cl)c(Br)c3)ncnc2cn1 [Tarloxotinib (bromide)] (10 µM)
0: all assays above

CC(C)CCNC(=O)c1ccc2c(c1)nc(Nc1n[nH]c3ccc(-c4ccccc4OC(F)(F)F)cc13)n2C1CCC(O)CC1 (stereo not drawn) [IRAK inhibitor 4 (trans)] (10 µM)
0: all assays above

Nc1ncnc2c1c(-c1ccc(Oc3ccccc3)cc1)nn2C1CCN(CCOCCOCCOc2ccc3c(c2)CN(C2CCC(=O)NC2=O)C3=O)CC1 (stereo unspecified) (2.5 µM)
0: all assays above

N[C@@H](CCC(=O)O)C(=O)N[C@@H](Cc1c[nH]c2ccccc12)C(=O)O [Oglufanide] (10 µM)
0: all assays above

CC1(C)Cc2c(sc(NC(=S)NC(=O)c3ccccc3)c2C(=O)O)CO1 (10 µM)
0: all assays above

CN(c1ccc(NC(=O)Nc2ccc(OC(F)(F)F)cc2)cc1)c1ccnc(Nc2cccc(S(N)(=O)=O)c2)n1 (2.5 µM)
3: [5]
1: [1] | [2]
0: all other assays above

C=CC(=O)N1CCC[C@H](n2c(=O)n(-c3ccc(Oc4ccccc4)cc3)c3c(N)ncnc32)C1 [ONO-4059 (analog)] (10 µM)
0: all assays above

O=C(NC1CCOCC1)c1ccc(-c2cc(-c3c[nH]nc3-c3ccccn3)ccn2)cc1 (10 µM)
0: all assays above

COc1nn(C)cc1Nc1nccc(-c2c[nH]c3c(NC(=O)[C@@H](C)N4CCN(C)CC4)cccc23)n1 (10 µM)
0: all assays above

C=CC(=O)Nc1cccc(CNc2nc(Nc3ccc(N4CCN(C)CC4)cc3OC)ncc2Cl)c1 (10 µM)
0: all assays above

Cn1cc(C2=C(c3cccc(N)c3)C(=O)NC2=O)c2ccccc21 (10 µM)
0: all assays above

Three compounds out of the list, arranged by number of heavy atoms, smallest number first.
Cn1cc(C2=C(c3cccc(N)c3)C(=O)NC2=O)c2ccccc21 (10 µM)
0: all assays above

C=CC(=O)N1CCC[C@H](n2c(=O)n(-c3ccc(Oc4ccccc4)cc3)c3c(N)ncnc32)C1 [ONO-4059 (analog)] (10 µM)
0: all assays above

C=CC(=O)Nc1cccc(CNc2nc(Nc3ccc(N4CCN(C)CC4)cc3OC)ncc2Cl)c1 (10 µM)
0: all assays above

(next part)

C[C@@H]1CN(c2cc(-c3n[nH]c4ccc(OC5(C)CC5)cc34)ncn2)C[C@H](C)O1 (10 µM)
0: all assays above

Cc1cc(-c2ccnc(Nc3cnn(C)c3)n2)ccc1CNC(=O)N1CC(OC(C)C)C1 (10 µM)
0: all assays above

O=Nc1c2[nH]c3ccccc3nc-2c2ccccc12 [IQ-1S (free acid)] (2.5 µM)
0: all assays above

COc1ccc(-c2coc3cc(O)ccc3c2=O)cc1 [Formononetin] (10 µM)
0: all assays above

Cc1ccc(NC(=O)c2ccnc(C(F)(F)F)c2)cc1-c1cc(OCCO)nc(N2CCOCC2)c1 (10 µM)
0: all assays above

N#Cc1c2nc3ccccc3nc2n2ccc(NC(=O)c3cccs3)cc12 (10 µM)
0: all assays above

O=C(O)c1cccc(CN2C(=O)/C(=C(\c3ccccc3)c3ccc(Cl)cc3)c3ccccc32)c1 (2.5 µM)
0: all assays above

Cc1cnc(NC2CCOCC2)nc1-n1cnc(C(=O)N[C@H](CN)c2cc(F)cc(Cl)c2)c1 (10 µM)
0: all assays above

COc1cc2ncnc(-n3nc(-c4ccccn4)nc3N)c2cc1OC (10 µM)
0: all assays above
